Measurements from “University of Dundee, Small-Polar-MMV Screening Library” (2021), ChEMBL document CHEMBL3988442.

Amino acid sequences for entries named in this document (tags omitted).
UniProt E9BF75, entry or part of it: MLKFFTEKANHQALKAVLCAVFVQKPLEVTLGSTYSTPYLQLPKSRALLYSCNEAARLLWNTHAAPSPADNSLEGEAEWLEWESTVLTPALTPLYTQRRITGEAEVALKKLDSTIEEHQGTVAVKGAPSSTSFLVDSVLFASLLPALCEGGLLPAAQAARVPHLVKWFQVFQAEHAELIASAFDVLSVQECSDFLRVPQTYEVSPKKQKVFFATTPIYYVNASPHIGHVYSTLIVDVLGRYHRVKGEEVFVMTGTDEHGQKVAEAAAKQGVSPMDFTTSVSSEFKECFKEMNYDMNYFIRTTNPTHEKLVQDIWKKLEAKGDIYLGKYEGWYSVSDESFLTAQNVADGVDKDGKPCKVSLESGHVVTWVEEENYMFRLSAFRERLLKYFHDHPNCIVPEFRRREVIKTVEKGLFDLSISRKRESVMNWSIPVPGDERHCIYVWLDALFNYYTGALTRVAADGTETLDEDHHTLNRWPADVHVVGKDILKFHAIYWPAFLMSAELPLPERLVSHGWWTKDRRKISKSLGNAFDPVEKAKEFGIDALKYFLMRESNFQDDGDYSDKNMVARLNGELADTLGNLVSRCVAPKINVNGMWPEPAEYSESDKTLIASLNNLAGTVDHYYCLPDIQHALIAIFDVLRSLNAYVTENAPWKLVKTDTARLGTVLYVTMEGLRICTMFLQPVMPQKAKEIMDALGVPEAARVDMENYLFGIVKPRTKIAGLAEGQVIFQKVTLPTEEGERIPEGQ

Results are percentages, as filed. The controls that fix the scale are not given in the record; negative values are as filed. The compounds are a random part of those screened. A dash means the value is not listed here; it may have been measured.

Mtb heat-shock: 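Assay on Mycobacterium tuberculosis, filed only as a heat shock assay from Cornell; the read-out is not stated. The concentration is filed as 10 mM, unlikely as a test dose, so the dose is not known. Higher reads as stronger inhibition (inferred: compounds with an IC50 in retests scored well above the rest). About 69,000 compounds were tested under these conditions; 1.4% (about 930) showed 50% or more at least once.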
Mtb growth Cornell: 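Whole-cell assay for inhibitors of Mycobacterium tuberculosis growth, labelled Cornell in the record; the read-out is not stated. The concentration is filed as 10 mM, unlikely as a test dose, so the dose is not known. The record gives no direction; compounds strong in two other growth screens of this library score well above the rest, so higher reads as stronger inhibition. Size under these conditions: about 53,000 compounds, about 900 of them at 50% or above in at least one test.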
LdMetRS: 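Methionyl-tRNA synthetase (putative), Leishmania donovani (UniProt E9BF75). Primary screen of methionyl-tRNA synthetase; the read-out is not stated. The test concentration is not given. Values are per cent inhibition. Of about 68,000 compounds tested this way, about 24 (0.035%) reached 50% or more in at least one test.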

For CCn1ncnc1CN(CCOC)Cc1ccc(C)cc1 the result was Mtb heat-shock: -19.88%; Mtb growth Cornell: 28.18%; LdMetRS: 4.177%. O=C(Nc1cccnc1N1CCSCC1)c1cc2c(s1)CCCCC2 gave Mtb heat-shock: -4.357%; Mtb growth Cornell: 3.13%; LdMetRS: 13.45%. With O=C(NCC1CCCCO1)c1cc(Cn2cnc3ccccc32)[nH]n1 (configuration not stated) the screen gave Mtb heat-shock: 7.022%; Mtb growth Cornell: 31.95%; LdMetRS: 17.63%. With CN(C)C(=O)COCC1CN(C2CCC2)Cc2ncn(C)c21.O=C(O)C(F)(F)F.O=C(O)C(F)(F)F (configuration not stated) the screen gave Mtb heat-shock: -27.9%. [H][C@@]12CCN(C(=O)CC3Cc4ccccc4C3)C[C@]1([H])OCCNC2=O gave Mtb heat-shock: 1.574%; Mtb growth Cornell: -12.48%. For CCS(=O)(=O)N1CCN(C(=O)NC(C)C)CC2(CNC(=O)C2)C1 (configuration not stated) the result was Mtb heat-shock: -9.802%; Mtb growth Cornell: 6.339%; LdMetRS: 14.7%. Cl.Cl.NCC(=O)N1CCCC(c2cncc(Nc3ncccn3)n2)C1 (configuration not stated) gave Mtb heat-shock: 2.391%; Mtb growth Cornell: -18.12%.

With CC(CN1CCC2(CC1)c1nc[nH]c1CCN2S(C)(=O)=O)C(F)(F)F (configuration not stated) the screen gave Mtb heat-shock: 3.242%; Mtb growth Cornell: 23.05%; LdMetRS: 16.81%. Result for CCn1cc(C(=O)Nc2ccc(C)cc2C(=O)NC)cn1 was Mtb heat-shock: -12.8%; Mtb growth Cornell: 20.82%; LdMetRS: 15.71%. For COc1ccc(C2CNCCN2C(=O)c2cccc3cccnc23)cc1 (configuration not stated) the result was Mtb heat-shock: -28.07%; Mtb growth Cornell: -23.3%; LdMetRS: 5.851%. CN(C)c1ncc(-c2cncn2CCc2ccc3c(c2)OCCO3)cn1.Cl gave Mtb heat-shock: 31.54%; Mtb growth Cornell: 24.2%. With Cc1cc(C)c(CNC(=O)NCC(O)c2ccc(Cl)cc2)c(=O)[nH]1 (configuration not stated) the screen gave Mtb heat-shock: -22.87%; Mtb growth Cornell: -41.41%; LdMetRS: 16%. For CCC1=N[C@@]2(CC[C@@H]3CN(Cc4ccccc4C)C[C@@H]32)C(=O)N1 the result was LdMetRS: 3.136%. O=C(Nc1ccc2c(c1)C(=O)NC2=O)c1cccs1 read Mtb heat-shock: -6.073%; Mtb growth Cornell: -9.348%; LdMetRS: 9.214%.

For COCCNC(=O)N1CCCCC1CNC(=O)Nc1ccccc1 (configuration not stated) the result was Mtb heat-shock: 8.182%; Mtb growth Cornell: 36.12%; LdMetRS: 17.51%. Result for Cc1cc(N2CCC(C(=O)NC3CC3)CC2)nc(-c2ccncc2)n1 was Mtb heat-shock: -9.937%; LdMetRS: 31.69%. Result for CCN1C(=O)CC[C@]12CC[C@@H](NC(=O)NCc1cccnc1)CC2.O=C(O)C(F)(F)F was Mtb heat-shock: 4.335%; Mtb growth Cornell: 13.79%. Result for COCC1c2nnn(C)c2CCN1C(=O)c1ccc(OC)c(F)c1 (configuration not stated) was Mtb heat-shock: 4.737%; Mtb growth Cornell: 1.753%; LdMetRS: 6.753%. With Cc1ccc(CN2CCC3(CC2)CCN(Cc2ccco2)CC3)cc1 the screen gave LdMetRS: 18.25%. O=C(CCOc1ccccc1)N1CCCC(c2ncc[nH]2)C1 (configuration not stated) read Mtb heat-shock: -16.69%; Mtb growth Cornell: 10.48%; LdMetRS: 5.621%. With Cc1cc(C)cc(S(=O)(=O)NCC2CNCCOC2)c1 (configuration not stated) the screen gave Mtb heat-shock: 3.514%; Mtb growth Cornell: 25.47%; LdMetRS: 12.63%.

Result for COCCOC(=O)N1CCN2C[C@@H](CO)[C@H](c3ccccc3)[C@H]2C1 was LdMetRS: 7.397%.

Some entries from above, unchanged:

structure,Mtb heat-shock,Mtb growth Cornell,LdMetRS
Cc1cc(N2CCC(C(=O)NC3CC3)CC2)nc(-c2ccncc2)n1,-9.937%,-,31.69%
COCCOC(=O)N1CCN2C[C@@H](CO)[C@H](c3ccccc3)[C@H]2C1,-,-,7.397%